PubChem BioAssay AID1487 (National Center for Advancing Translational Sciences (NCATS), 2009)
This is one part of the list. Shown are side measurements of this screen, not its main read-out; they come without a call. Compounds called inactive in the main read-out are mostly missing here. The note in brackets gives the kind of curve behind each potency; many fits are weak.

Assay: qHTS Assay for Modulators of Lamin A Splicing
Conditions: HeLa LMNA splicing GFP/RFP minigene ratio, 48 h
Summary of the method: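 S3 HeLa cells stably expressing lamin A-EGFP splicing minigene plus DsRed2, 600 cells/well, 48 h compound exposure at 37C. Laser-scanning cytometry; analysed as GFP (500-530 nm)/RFP (575-640 nm) total intensity ratio; 0.5% DMSO vehicle.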

[1] = measured here: GFP splicing reporter channel
[2] = measured here: RFP viability control channel

Compound | AC50 [1] | AC50 [2]
COc1ccccc1OCC(=O)NCC(c1ccc(Cl)cc1)N1CCCCC1 (configuration not stated) | 1.78 µM [falling, full curve, poor fit] | 
Cc1ccc(C(=O)OCCc2sc[n+](Cc3ccccc3)c2C)cc1 |  | 17.8 µM [rising, single point]
Cc1ccc(C(C#N)c2ccc(C(=O)c3ccc(F)cc3)cc2)cc1 (configuration not stated) |  | 14.1 µM [rising, single point]
CCC(Oc1ccccc1)C(=O)O/N=C(\N)c1ccc(OC)c(OC)c1 (configuration not stated) |  | 10 µM [rising, partial curve, poor fit]
COc1ccccc1-n1cnc(N)c1C(=O)c1ccccc1 |  | 31.6 µM [rising, single point]
Cc1cccc(/C=C(\c2nc3ccccc3[nH]2)S(=O)(=O)c2ccccc2)c1 | 3.98 µM [falling, full curve, poor fit] | 
CCOc1cc(C(=O)NCCc2csc3nc(-c4ccc(C)cc4)nn23)cc(OCC)c1OCC |  | 3.16 µM [rising, partial curve, poor fit]
N#CCC(=O)Nc1nc(-c2ccc3c(c2)OCCO3)cs1 | 0.0562 µM [falling, full curve, poor fit] | 
COc1ccc(C(=O)N/N=C/c2sc3ccccc3c2O)cc1 | 14.1 µM [rising, partial curve, poor fit] | 14.1 µM [rising, partial curve]
CCOc1ccc2[nH]c(=O)c(CN(Cc3ccco3)C(CC)c3nnnn3Cc3ccccc3)cc2c1 (configuration not stated) |  | 11.2 µM [falling, partial curve, poor fit]
Cc1nsc2c1ccc1ccccc12 | 0.0126 µM [rising, full curve, poor fit] | 
COc1ccccc1NC(=S)NC1CCCCCC1 |  | 14.1 µM [rising, partial curve]
CCOc1ccccc1NC(=S)N(CCC(C)C)C1CCN(C(C)=O)CC1 | 5.62 µM [falling, single point] | 6.31 µM [falling, single point]
N#Cc1c(N)c(C#N)c(-c2ccc3c(c2)OCO3)c2c1CCCC2 | 12.6 µM [rising, partial curve, poor fit] | 35.5 µM [rising, single point]
CS/C(=N\S(=O)(=O)c1cccs1)Nc1ccc(Br)cc1F |  | 35.5 µM [rising, single point]
COc1ccc(S(=O)(=O)N2CCCCC2)cc1 | 6.31 µM [falling, single point] | 
Cc1cc(N/N=C/c2ccccc2)nc(NCc2ccccc2)n1 | 15.8 µM [rising, single point] | 22.4 µM [rising, single point]
O=C(c1ccc(F)cc1)N1c2nc(-c3ccco3)nn2C2(CCCCC2)[C@@H]2CCCC[C@@H]21 | 0.01 µM [rising, full curve, poor fit] | 
O=C(Cc1cccc2ccccc12)N/N=C/c1ccc(O)c([N+](=O)[O-])c1 | 35.5 µM [falling, single point] | 

Compound | AC50 [1] | AC50 [2]
N#CCC(=O)Nc1ccc(C(=O)OCC(=O)Nc2ccccc2-c2ccccc2)cc1 |  | 6.31 µM [falling, partial curve]
Cc1ccc(SCCNC(=O)c2ccc(CN3CCOCC3)cc2)cc1 |  | 5.01 µM [rising, partial curve, poor fit]
CCC(=O)Nc1nnc(SCc2cc(=O)c3cc(C)ccc3[nH]2)s1 | 0.224 µM [rising, partial curve] | 
CC1(C)SC2C(NC(=O)C(C(=O)O)c3ccccc3)C(=O)N2C1C(=O)O (configuration not stated) |  | 0.158 µM [rising, full curve, poor fit]
COc1ccc(CCCc2nnc(SCC(=O)Nc3ncc(C)s3)o2)cc1 | 12.6 µM [rising, partial curve, poor fit] | 17.8 µM [rising, single point]
Cc1ccc(S(=O)(=O)N2CCC(=O)N(C(COCc3cccc(C)c3)C(C)C)CC2)cc1 (configuration not stated) |  | 7.08 µM [rising, partial curve, poor fit]
COC(=O)C(=C/C(C)=C/c1cccs1)C(=O)OC |  | 14.1 µM [falling, single point]
CCOC(=O)c1c[nH]c(=S)n1C | 1.26 µM [rising, partial curve] | 
COc1ccc(CCNC(=O)C(=O)NCc2ccccc2C)cc1OC |  | 0.398 µM [falling, full curve, poor fit]
CC(=O)Nc1cc(C(=O)NCc2ccco2)ccc1Sc1ccc(F)cc1 |  | 7.08 µM [rising, partial curve]
Cc1cc(C)cc(NS(=O)(=O)c2ccc(Oc3ncc(C(F)(F)F)cc3Cl)cc2)c1 | 28.2 µM [falling, single point] | 31.6 µM [falling, single point]
O=C(NNC(=S)Nc1cccc(C(F)(F)F)c1)c1cccc(Cl)c1 | 7.94 µM [rising, partial curve] | 11.2 µM [rising, partial curve]
C[C@@H](C[N+](C)(C)C)OC(N)=O | 0.1 µM [falling, full curve] | 0.0891 µM [falling, full curve]
Oc1ccc(/C=N/NC(=S)Nc2cccnc2)c(O)c1 | 22.4 µM [rising, single point] | 25.1 µM [rising, single point]
CCCCC(CC)CNC(=O)/C=C/c1ccc(F)cc1 (configuration not stated) |  | 10 µM [rising, partial curve, poor fit]
COc1ccc(/C=N/n2c(N)nc(-c3ccccc3)c2-c2ccccc2)cc1 |  | 35.5 µM [rising, single point]
CC(C)c1ccc(/C=C/c2ccc(=O)n(C)n2)cc1 |  | 8.91 µM [rising, partial curve, poor fit]
CCOC(=O)N1CCN(C(=O)CS(=O)(=O)c2cn(Cc3ccc(Cl)cc3)c3ccccc23)CC1 |  | 4.47 µM [rising, full curve, poor fit]
O=C(O)c1cn(-c2ccc(F)cc2)c2cc(N3CCNCC3)c(F)cc2c1=O |  | 2.24 µM [rising, partial curve, poor fit]

Three compounds from above, arranged by SMILES length, low to high.
Compound | AC50 [1] | AC50 [2]
Cc1ccc(SCCNC(=O)c2ccc(CN3CCOCC3)cc2)cc1 |  | 5.01 µM [rising, partial curve, poor fit]
O=C(O)c1cn(-c2ccc(F)cc2)c2cc(N3CCNCC3)c(F)cc2c1=O |  | 2.24 µM [rising, partial curve, poor fit]
CCOC(=O)N1CCN(C(=O)CS(=O)(=O)c2cn(Cc3ccc(Cl)cc3)c3ccccc23)CC1 |  | 4.47 µM [rising, full curve, poor fit]
